Laboratory results taken from paper PMC4746701.
No constants are given. Whether binding was seen depends on the method and setting. For some of these results: Binding seen in cells or lysates may run through a third protein. For some of these results: Where a sequence is shown, tags or fusion partners need not be part of it.

Key:
[1] = molecular target: SEL1L^348–497 (C-terminal deletion mutant of SEL1L^cent lacking SLR motif 9) (Mus musculus) (UniProt Q9Z2G6); test: SEC; Superdex 200; 25 mM Tris, 150 mM NaCl, 5 mM DTT, pH 7.5; both purified
[2] = molecular target: SEL1L^348–497 (C-terminal deletion mutant of SEL1L^cent lacking SLR motif 9) (Mus musculus) (UniProt Q9Z2G6); test: AUC; analytical ultracentrifugation of purified protein (Supplementary Fig. 2C); both purified
[3] = molecular target: SEL1L^cent triple point mutant (I515A, L516A, Y519A) (Mus musculus) (UniProt Q9Z2G6); test: SEC; Superdex 200; 25 mM Tris, 150 mM NaCl, 5 mM DTT, pH 7.5; both purified
[4] = molecular target: SEL1L^cent L521A (Mus musculus) (UniProt Q9Z2G6); test: as above
[5] = molecular target: SEL1L^cent G512K/G513K double mutant (Mus musculus) (UniProt Q9Z2G6); test: as above
[6] = molecular target: full-length mouse SEL1L (SEL1L-HA and SEL1L-FLAG) (mouse) (UniProt Q9Z2G6); test: co-IP; HEK293T co-transfected; lysis in 50 mM Tris pH 7.4, 150 mM NaCl, 0.1% Triton X-100, 5% glycerol; IP anti-FLAG and blot anti-HA (Fig. 4A) or IP anti-HA and blot anti-FLAG (Fig. 4D)

B1: SEL1L^348–497 (C-terminal deletion mutant of SEL1L^cent lacking SLR motif 9) (domain or fragment, UniProt Q9Z2G6 348-497)
chain: NSGMLEEDLIQYYQFLAEKGDVQAQVGLGQLHLHGGRGVEQNHQRAFDYFNLAANAGNSHAMAFLGKMYSEGSDIVPQSNETALHYFKKAADMGNPVGQSGLGMAYLYGRGVQVNYDLALKYFQKAAEQGWVDGQLQLGSMYYNGIGVKR
With B1 the binding [1] was “no binding” and the binding [2] was “no binding”.

B2: SEL1L^cent triple point mutant (I515A, L516A, Y519A) (domain or fragment, UniProt Q9Z2G6 348-533)
chain: NSGMLEEDLIQYYQFLAEKGDVQAQVGLGQLHLHGGRGVEQNHQRAFDYFNLAANAGNSHAMAFLGKMYSEGSDIVPQSNETALHYFKKAADMGNPVGQSGLGMAYLYGRGVQVNYDLALKYFQKAAEQGWVDGQLQLGSMYYNGIGVKRDYKQALKYFNLASQGGHAAAFANLAQMHASGTGVMR
B2 was tested, and the binding [3] was “no binding”.

B3: SEL1L^cent L521A (domain or fragment, UniProt Q9Z2G6 348-533)
chain: NSGMLEEDLIQYYQFLAEKGDVQAQVGLGQLHLHGGRGVEQNHQRAFDYFNLAANAGNSHAMAFLGKMYSEGSDIVPQSNETALHYFKKAADMGNPVGQSGLGMAYLYGRGVQVNYDLALKYFQKAAEQGWVDGQLQLGSMYYNGIGVKRDYKQALKYFNLASQGGHILAFYNAAQMHASGTGVMR
In the case of B3, the binding [4] is reported as “no binding”.

B4: SEL1L^cent G512K/G513K double mutant (domain or fragment, UniProt Q9Z2G6 348-533)
chain: NSGMLEEDLIQYYQFLAEKGDVQAQVGLGQLHLHGGRGVEQNHQRAFDYFNLAANAGNSHAMAFLGKMYSEGSDIVPQSNETALHYFKKAADMGNPVGQSGLGMAYLYGRGVQVNYDLALKYFQKAAEQGWVDGQLQLGSMYYNGIGVKRDYKQALKYFNLASQKKHILAFYNLAQMHASGTGVMR
In the case of B4, the binding [5] is reported as “no binding”.

B5: SEL1L^348–497 (SLR motif 9 deletion) expressed in HEK293T behind the SEL1L signal peptide (no KDEL) (domain or fragment, UniProt Q9Z2G6 348-497)
chain: NSGMLEEDLIQYYQFLAEKGDVQAQVGLGQLHLHGGRGVEQNHQRAFDYFNLAANAGNSHAMAFLGKMYSEGSDIVPQSNETALHYFKKAADMGNPVGQSGLGMAYLYGRGVQVNYDLALKYFQKAAEQGWVDGQLQLGSMYYNGIGVKR
For B5, the binding [6] was “no binding”.

B6: SEL1L^348–497-KDEL (SEL1L^348–497-FLAG-KDEL) (domain or fragment, UniProt Q9Z2G6 348-497)
chain: NSGMLEEDLIQYYQFLAEKGDVQAQVGLGQLHLHGGRGVEQNHQRAFDYFNLAANAGNSHAMAFLGKMYSEGSDIVPQSNETALHYFKKAADMGNPVGQSGLGMAYLYGRGVQVNYDLALKYFQKAAEQGWVDGQLQLGSMYYNGIGVKRKDEL
In the case of B6, the binding [6] is reported as “no binding”.
